Laboratory results as given in the supplement of paper PMC12823440, “Inhibitors supercharge kinase turnover through native proteolytic circuits” (Nature, 2025).
Counter-ions that a name gives are not always drawn. The list shows a part of the results. Hit calls seldom repeat between salt and free forms of one compound.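 Kinases, fused to nanoluciferase, were expressed in K562 cells; luminescence was measured every 4 h from 2 to 18 h as percent of control (DMSO = 100%, positive control = 0%). A time point is decreased if signal falls significantly (2 sigma). Hits were called by the authors by a rule that is not shown; the count of time points alone does not decide it.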

Amino acid sequences for entries named in this document (tags omitted). A change or cut given only in a name is not applied to a line headed by its entry.
UniProt P50613: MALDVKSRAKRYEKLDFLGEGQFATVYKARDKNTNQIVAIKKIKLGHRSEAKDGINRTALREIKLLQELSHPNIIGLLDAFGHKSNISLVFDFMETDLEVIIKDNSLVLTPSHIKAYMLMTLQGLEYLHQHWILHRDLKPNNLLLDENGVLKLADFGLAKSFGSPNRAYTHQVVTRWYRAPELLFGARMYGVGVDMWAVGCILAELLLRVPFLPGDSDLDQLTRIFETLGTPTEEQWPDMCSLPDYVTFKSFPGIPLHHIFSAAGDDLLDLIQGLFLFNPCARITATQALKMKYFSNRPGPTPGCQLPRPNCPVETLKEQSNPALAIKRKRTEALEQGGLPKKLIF
UniProt P50750, whole entry: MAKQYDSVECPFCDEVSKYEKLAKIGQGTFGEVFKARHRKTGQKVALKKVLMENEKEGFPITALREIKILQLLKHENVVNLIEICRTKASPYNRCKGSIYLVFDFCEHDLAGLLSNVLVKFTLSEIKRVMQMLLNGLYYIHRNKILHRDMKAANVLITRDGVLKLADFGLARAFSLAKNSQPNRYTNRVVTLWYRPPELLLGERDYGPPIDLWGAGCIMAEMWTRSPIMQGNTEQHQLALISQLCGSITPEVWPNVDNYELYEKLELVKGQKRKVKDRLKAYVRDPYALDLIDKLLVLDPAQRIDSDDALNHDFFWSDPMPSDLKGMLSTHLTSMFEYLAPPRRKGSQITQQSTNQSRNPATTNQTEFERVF
UniProt O96017, whole entry: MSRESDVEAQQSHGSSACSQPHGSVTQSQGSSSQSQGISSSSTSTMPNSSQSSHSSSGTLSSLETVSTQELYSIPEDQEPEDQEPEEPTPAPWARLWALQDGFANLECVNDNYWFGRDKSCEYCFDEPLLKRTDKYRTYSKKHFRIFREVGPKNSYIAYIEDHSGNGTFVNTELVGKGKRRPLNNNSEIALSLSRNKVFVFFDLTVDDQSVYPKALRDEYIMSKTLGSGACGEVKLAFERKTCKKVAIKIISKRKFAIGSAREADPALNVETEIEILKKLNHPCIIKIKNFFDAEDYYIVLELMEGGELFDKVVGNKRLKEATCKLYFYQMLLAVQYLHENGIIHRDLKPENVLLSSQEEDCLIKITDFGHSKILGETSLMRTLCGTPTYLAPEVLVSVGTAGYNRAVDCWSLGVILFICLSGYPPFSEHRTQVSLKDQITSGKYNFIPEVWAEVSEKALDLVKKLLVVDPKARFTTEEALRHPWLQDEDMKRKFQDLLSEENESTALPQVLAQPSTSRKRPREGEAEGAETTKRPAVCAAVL
UniProt P07333, whole entry: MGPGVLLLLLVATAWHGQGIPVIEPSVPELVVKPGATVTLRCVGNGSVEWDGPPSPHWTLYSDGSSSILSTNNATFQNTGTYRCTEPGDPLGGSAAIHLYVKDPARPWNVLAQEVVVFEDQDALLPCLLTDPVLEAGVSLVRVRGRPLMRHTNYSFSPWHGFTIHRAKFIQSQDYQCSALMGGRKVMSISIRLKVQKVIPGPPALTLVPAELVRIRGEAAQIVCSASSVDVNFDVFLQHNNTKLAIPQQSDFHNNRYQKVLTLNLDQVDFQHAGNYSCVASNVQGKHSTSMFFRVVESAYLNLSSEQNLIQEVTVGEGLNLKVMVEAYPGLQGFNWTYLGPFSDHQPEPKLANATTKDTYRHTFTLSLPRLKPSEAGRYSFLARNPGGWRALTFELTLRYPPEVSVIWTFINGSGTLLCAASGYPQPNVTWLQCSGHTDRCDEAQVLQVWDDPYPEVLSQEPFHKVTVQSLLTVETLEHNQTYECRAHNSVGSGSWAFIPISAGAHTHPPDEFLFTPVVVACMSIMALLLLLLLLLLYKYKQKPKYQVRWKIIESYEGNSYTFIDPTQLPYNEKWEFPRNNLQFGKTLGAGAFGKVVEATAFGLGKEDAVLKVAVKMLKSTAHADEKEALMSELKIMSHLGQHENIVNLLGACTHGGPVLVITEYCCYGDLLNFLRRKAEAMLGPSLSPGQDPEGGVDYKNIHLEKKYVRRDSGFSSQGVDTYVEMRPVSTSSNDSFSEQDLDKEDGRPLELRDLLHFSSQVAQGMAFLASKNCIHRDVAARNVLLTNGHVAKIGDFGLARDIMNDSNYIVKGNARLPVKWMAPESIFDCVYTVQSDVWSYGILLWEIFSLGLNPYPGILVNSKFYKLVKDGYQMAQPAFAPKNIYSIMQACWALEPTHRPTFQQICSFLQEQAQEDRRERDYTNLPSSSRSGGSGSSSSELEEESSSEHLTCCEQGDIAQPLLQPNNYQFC
UniProt P41240: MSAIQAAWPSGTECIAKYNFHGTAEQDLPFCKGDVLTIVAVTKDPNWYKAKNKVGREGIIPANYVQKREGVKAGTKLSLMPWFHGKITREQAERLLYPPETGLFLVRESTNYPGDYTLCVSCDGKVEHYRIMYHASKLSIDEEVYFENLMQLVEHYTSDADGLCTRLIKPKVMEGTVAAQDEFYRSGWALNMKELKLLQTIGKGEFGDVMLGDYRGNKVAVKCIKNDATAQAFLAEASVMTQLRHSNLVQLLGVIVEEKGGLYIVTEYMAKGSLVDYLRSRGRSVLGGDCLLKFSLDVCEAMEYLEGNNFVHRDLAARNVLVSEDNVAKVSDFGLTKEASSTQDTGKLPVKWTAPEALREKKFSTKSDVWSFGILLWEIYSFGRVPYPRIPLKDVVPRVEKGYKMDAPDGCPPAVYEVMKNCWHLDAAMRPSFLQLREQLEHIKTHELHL
UniProt P48729: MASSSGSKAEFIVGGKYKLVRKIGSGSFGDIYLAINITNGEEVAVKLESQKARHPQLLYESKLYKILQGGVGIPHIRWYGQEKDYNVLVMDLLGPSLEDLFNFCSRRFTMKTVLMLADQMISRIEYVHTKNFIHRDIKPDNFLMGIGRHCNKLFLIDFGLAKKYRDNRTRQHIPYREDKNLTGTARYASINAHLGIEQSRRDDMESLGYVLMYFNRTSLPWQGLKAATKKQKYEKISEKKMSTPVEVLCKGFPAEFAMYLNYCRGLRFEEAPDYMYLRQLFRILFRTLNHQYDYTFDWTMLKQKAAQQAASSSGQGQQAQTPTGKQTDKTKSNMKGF
UniProt P48730: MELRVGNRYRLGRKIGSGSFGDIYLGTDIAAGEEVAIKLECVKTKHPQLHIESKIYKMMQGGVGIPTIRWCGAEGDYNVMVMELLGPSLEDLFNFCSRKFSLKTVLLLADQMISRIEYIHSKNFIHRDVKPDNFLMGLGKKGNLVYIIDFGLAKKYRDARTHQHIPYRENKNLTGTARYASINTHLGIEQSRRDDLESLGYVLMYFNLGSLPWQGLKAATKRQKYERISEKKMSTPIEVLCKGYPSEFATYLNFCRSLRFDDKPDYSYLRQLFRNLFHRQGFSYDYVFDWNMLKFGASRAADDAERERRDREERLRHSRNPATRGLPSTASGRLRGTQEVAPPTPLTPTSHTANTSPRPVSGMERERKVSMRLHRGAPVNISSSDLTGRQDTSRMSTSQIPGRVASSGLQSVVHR
UniProt Q08345: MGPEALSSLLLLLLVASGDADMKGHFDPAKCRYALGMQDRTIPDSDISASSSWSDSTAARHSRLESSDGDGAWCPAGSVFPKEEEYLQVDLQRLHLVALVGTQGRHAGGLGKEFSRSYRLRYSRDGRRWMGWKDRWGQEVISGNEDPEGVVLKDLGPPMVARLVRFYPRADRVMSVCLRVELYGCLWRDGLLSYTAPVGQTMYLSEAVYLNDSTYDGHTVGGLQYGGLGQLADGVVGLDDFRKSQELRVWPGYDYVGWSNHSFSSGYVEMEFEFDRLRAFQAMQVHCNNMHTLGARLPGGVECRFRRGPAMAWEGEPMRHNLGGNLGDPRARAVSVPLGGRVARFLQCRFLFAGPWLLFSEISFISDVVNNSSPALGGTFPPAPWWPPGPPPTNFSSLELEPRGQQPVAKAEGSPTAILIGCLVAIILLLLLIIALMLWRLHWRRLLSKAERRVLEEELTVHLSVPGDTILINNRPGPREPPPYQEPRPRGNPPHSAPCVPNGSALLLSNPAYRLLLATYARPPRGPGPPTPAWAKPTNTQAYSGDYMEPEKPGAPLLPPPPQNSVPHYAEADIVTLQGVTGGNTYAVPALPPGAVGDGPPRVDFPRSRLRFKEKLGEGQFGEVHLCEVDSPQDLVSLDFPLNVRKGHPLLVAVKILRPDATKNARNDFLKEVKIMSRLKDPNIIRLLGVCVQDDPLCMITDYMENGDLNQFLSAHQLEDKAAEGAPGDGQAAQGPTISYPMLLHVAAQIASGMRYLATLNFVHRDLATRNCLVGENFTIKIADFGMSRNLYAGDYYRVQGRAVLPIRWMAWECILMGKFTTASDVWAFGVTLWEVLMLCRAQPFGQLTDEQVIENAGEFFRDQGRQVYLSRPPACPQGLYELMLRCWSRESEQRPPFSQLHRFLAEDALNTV
UniProt Q9Y463, whole entry, looked up: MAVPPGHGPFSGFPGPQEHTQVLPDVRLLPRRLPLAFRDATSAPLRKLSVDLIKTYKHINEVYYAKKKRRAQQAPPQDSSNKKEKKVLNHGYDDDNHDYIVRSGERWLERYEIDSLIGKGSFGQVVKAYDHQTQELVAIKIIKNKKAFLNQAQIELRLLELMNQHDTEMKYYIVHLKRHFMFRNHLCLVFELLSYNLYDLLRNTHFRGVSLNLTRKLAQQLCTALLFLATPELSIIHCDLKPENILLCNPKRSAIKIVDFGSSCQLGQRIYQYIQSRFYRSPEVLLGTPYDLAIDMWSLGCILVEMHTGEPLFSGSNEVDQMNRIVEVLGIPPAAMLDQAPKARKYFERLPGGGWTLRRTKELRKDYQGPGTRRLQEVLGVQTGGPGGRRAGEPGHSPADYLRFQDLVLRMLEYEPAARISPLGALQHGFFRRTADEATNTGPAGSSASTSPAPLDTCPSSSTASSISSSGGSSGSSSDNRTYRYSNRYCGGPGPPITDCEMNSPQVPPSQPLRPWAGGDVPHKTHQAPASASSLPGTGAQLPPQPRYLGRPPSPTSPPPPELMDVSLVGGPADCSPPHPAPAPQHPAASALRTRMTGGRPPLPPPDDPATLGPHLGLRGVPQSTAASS
UniProt Q92630: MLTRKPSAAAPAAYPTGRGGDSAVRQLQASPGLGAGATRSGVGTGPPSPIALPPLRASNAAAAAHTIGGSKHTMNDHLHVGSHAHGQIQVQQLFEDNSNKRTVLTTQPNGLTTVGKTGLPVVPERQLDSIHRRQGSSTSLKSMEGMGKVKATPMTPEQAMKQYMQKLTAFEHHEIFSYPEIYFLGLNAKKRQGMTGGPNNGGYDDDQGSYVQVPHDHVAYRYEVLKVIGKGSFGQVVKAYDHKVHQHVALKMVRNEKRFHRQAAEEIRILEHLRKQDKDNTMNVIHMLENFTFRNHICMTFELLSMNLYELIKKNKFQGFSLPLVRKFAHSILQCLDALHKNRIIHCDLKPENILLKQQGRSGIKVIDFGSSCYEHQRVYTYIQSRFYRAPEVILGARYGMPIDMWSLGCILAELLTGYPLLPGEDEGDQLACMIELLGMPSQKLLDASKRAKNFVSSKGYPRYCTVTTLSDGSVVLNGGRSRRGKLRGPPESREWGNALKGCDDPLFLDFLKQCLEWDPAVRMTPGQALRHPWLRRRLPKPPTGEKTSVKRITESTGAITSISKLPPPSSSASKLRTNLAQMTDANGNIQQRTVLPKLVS

Columns and labels:
Assay in all cases: kinase-Nluc reporter destabilization hit call (1 = scored as downregulated) (binary); higher = compound decreases kinase abundance
Conditions in all cases: K562, 2-18 h
CDK7 = CDK7 (UniProt P50613)
CDK9 = CDK9 (UniProt P50750)
CHEK2 = CHEK2 (UniProt O96017)
CSF1R = CSF1R (UniProt P07333)
CSK = CSK (UniProt P41240)
CSNK1A1 = CSNK1A1 (UniProt P48729)
CSNK1D = CSNK1D (UniProt P48730)
DDR1 = DDR1 (UniProt Q08345)
DYRK1B = DYRK1B (UniProt Q9Y463)
DYRK2 = DYRK2 (UniProt Q92630)

Measured: kinase-Nluc reporter destabilization hit call

CCCC(=O)Nc1ncnc2c1ncn2[C@@H]1O[C@@H]2COP(=O)(O)O[C@H]2[C@H]1OC(=O)CCC [Bucladesine (sodium)]
inactive: CDK7; 10 µM 0 | CDK9; 10 µM 0 | CHEK2; 10 µM 0 | CSF1R; 10 µM 0 | CSK; 10 µM 0 | CSNK1A1; 10 µM 0 | CSNK1D; 10 µM 0 | DDR1; 10 µM 0 | DYRK1B; 10 µM 0 | DYRK2; 10 µM 0

C=CC(=O)Nc1cc(Nc2nccc(-c3cn(C)c4ccccc34)n2)c(OC)cc1N(C)CCN(C)C [Osimertinib]
inactive: CDK7; 2.5 µM 0 | CDK9; 2.5 µM 0 | CHEK2; 2.5 µM 0 | CSF1R; 2.5 µM 0 | CSK; 2.5 µM 0 | CSNK1A1; 2.5 µM 0 | CSNK1D; 2.5 µM 0 | DDR1; 2.5 µM 0 | DYRK1B; 2.5 µM 0 | DYRK2; 2.5 µM 0

COc1ncc(F)cc1CNc1ccc(Cc2c[nH]c3ncc(C)cc23)c(F)n1
inactive: CDK7; 10 µM 0 | CDK9; 10 µM 0 | CHEK2; 10 µM 0 | CSF1R; 10 µM 0 | CSK; 10 µM 0 | CSNK1A1; 10 µM 0 | CSNK1D; 10 µM 0 | DDR1; 10 µM 0 | DYRK1B; 10 µM 0 | DYRK2; 10 µM 0

Cc1cc(Nc2ncc(Cl)c(Nc3ccccc3S(=O)(=O)C(C)C)n2)c(OC(C)C)cc1C1CCNCC1 [Ceritinib]
inactive: CDK7; 2.5 µM 0 | CDK9; 2.5 µM 0 | CHEK2; 2.5 µM 0 | CSF1R; 2.5 µM 0 | CSK; 2.5 µM 0 | CSNK1A1; 2.5 µM 0 | CSNK1D; 2.5 µM 0 | DDR1; 2.5 µM 0 | DYRK1B; 2.5 µM 0 | DYRK2; 2.5 µM 0

CNc1ncc2cc(-c3ccc(-c4cccc(C)n4)cc3Cl)c(=O)n(C[C@H]3OC[C@H](N)CO3)c2n1
inactive: CDK7; 10 µM 0 | CDK9; 10 µM 0 | CHEK2; 10 µM 0 | CSF1R; 10 µM 0 | CSK; 10 µM 0 | CSNK1A1; 10 µM 0 | CSNK1D; 10 µM 0 | DDR1; 10 µM 0 | DYRK1B; 10 µM 0 | DYRK2; 10 µM 0

C[C@H](CCC(=O)NCCS(=O)(=O)O)[C@H]1CC[C@H]2[C@@H]3[C@@H](O)C[C@@H]4C[C@H](O)CC[C@]4(C)[C@H]3CC[C@]12C [Tauroursodeoxycholate (sodium)]
inactive: CDK7; 10 µM 0 | CDK9; 10 µM 0 | CHEK2; 10 µM 0 | CSF1R; 10 µM 0 | CSK; 10 µM 0 | CSNK1A1; 10 µM 0 | CSNK1D; 10 µM 0 | DDR1; 10 µM 0 | DYRK1B; 10 µM 0 | DYRK2; 10 µM 0

CCN(CC)CC(=O)Nc1c(C)cccc1C [Lidocaine]
inactive: CDK7; 10 µM 0 | CDK9; 10 µM 0 | CHEK2; 10 µM 0 | CSF1R; 10 µM 0 | CSK; 10 µM 0 | CSNK1A1; 10 µM 0 | CSNK1D; 10 µM 0 | DDR1; 10 µM 0 | DYRK1B; 10 µM 0 | DYRK2; 10 µM 0

CN(C)C/C=C/C(=O)Nc1cc2c(Nc3ccc(F)c(Cl)c3)ncnc2cc1O[C@H]1CCOC1 [Afatinib (dimaleate)]
inactive: CDK7; 2.5 µM 0 | CDK9; 2.5 µM 0 | CHEK2; 2.5 µM 0 | CSF1R; 2.5 µM 0 | CSK; 2.5 µM 0 | CSNK1A1; 2.5 µM 0 | CSNK1D; 2.5 µM 0 | DDR1; 2.5 µM 0 | DYRK1B; 2.5 µM 0 | DYRK2; 2.5 µM 0

Two neighbouring entries out of the list so far:
COc1ncc(F)cc1CNc1ccc(Cc2c[nH]c3ncc(C)cc23)c(F)n1
inactive: CDK7; 10 µM 0 | CDK9; 10 µM 0 | CHEK2; 10 µM 0 | CSF1R; 10 µM 0 | CSK; 10 µM 0 | CSNK1A1; 10 µM 0 | CSNK1D; 10 µM 0 | DDR1; 10 µM 0 | DYRK1B; 10 µM 0 | DYRK2; 10 µM 0

Cc1cc(Nc2ncc(Cl)c(Nc3ccccc3S(=O)(=O)C(C)C)n2)c(OC(C)C)cc1C1CCNCC1 [Ceritinib]
inactive: CDK7; 2.5 µM 0 | CDK9; 2.5 µM 0 | CHEK2; 2.5 µM 0 | CSF1R; 2.5 µM 0 | CSK; 2.5 µM 0 | CSNK1A1; 2.5 µM 0 | CSNK1D; 2.5 µM 0 | DDR1; 2.5 µM 0 | DYRK1B; 2.5 µM 0 | DYRK2; 2.5 µM 0

(list continues)

Cc1ccc(NC(=O)c2ccc(CN3CCN(C)CC3)cc2)cc1Nc1nc(-c2cccnc2)cs1 [Masitinib]
inactive: CDK7; 2.5 µM 0 | CDK9; 2.5 µM 0 | CHEK2; 2.5 µM 0 | CSF1R; 2.5 µM 0 | CSK; 2.5 µM 0 | CSNK1A1; 2.5 µM 0 | CSNK1D; 2.5 µM 0 | DDR1; 2.5 µM 0 | DYRK1B; 2.5 µM 0 | DYRK2; 2.5 µM 0

Cn1cc(-c2cnc3ccc4ccc(CS(=O)(=O)NCc5ccccn5)cc4c(=O)c3c2)cn1 [MK-8033 (hydrochloride)]
inactive: CDK7; 10 µM 0 | CDK9; 10 µM 0 | CHEK2; 10 µM 0 | CSF1R; 10 µM 0 | CSK; 10 µM 0 | CSNK1A1; 10 µM 0 | CSNK1D; 10 µM 0 | DDR1; 10 µM 0 | DYRK1B; 10 µM 0 | DYRK2; 10 µM 0

COc1ncc(F)cc1CNc1ccc(Cc2c[nH]c3ncc(C)cc23)c(F)n1 [PLX5622 (hemifumarate)]
inactive: CDK7; 10 µM 0 | CDK9; 10 µM 0 | CHEK2; 10 µM 0 | CSF1R; 10 µM 0 | CSK; 10 µM 0 | CSNK1A1; 10 µM 0 | CSNK1D; 10 µM 0 | DDR1; 10 µM 0 | DYRK1B; 10 µM 0 | DYRK2; 10 µM 0

CNC(=O)c1cc(Oc2ccc(NC(=O)Nc3ccc(Cl)c(C(F)(F)F)c3)c(F)c2)ccn1 [Regorafenib (monohydrate)]
inactive: CDK7; 2.5 µM 0 | CDK9; 2.5 µM 0 | CHEK2; 2.5 µM 0 | CSF1R; 2.5 µM 0 | CSK; 2.5 µM 0 | CSNK1A1; 2.5 µM 0 | CSNK1D; 2.5 µM 0 | DDR1; 2.5 µM 0 | DYRK1B; 2.5 µM 0 | DYRK2; 2.5 µM 0

C=CC(=O)Nc1cc(Nc2ncc(C(=O)OC(C)C)c(-c3cn(C)c4ccccc34)n2)c(OC)cc1N(C)CCN(C)C [Mobocertinib (succinate)]
inactive: CDK7; 10 µM 0 | CDK9; 10 µM 0 | CHEK2; 10 µM 0 | CSF1R; 10 µM 0 | CSK; 10 µM 0 | CSNK1A1; 10 µM 0 | CSNK1D; 10 µM 0 | DDR1; 10 µM 0 | DYRK1B; 10 µM 0 | DYRK2; 10 µM 0

COc1cc2nccc(Oc3ccc(NC(=O)C4(C(=O)Nc5ccc(F)cc5)CC4)cc3)c2cc1OC [Cabozantinib (S-malate)]
inactive: CDK7; 10 µM 0 | CDK9; 10 µM 0 | CHEK2; 10 µM 0 | CSF1R; 10 µM 0 | CSK; 10 µM 0 | CSNK1A1; 10 µM 0 | CSNK1D; 10 µM 0 | DDR1; 10 µM 0 | DYRK1B; 10 µM 0 | DYRK2; 10 µM 0
